Laboratory results as given in doi:10.1101/2025.06.02.657351.
Results are given in words; binding and its absence hold for the method and conditions named. Binding seen in cells or lysates may run through a third protein. Some results given as binding are weak or reduced against the parent protein; the word gives no strength. For some of these results: Tags and fused reporters may be left off the sequences shown.

B1: OmpA from Chlamydia trachomatis (Ctr), expressed in HeLa cells (HeLa OmpA expressing cells of Fig. 2A) (protein, UniProt P06597 23-394)
chain: LPVGNPAEPSLMIDGILWEGFGGDPCDPCTTWCDAISMRMGYYGDFVFDRVLQTDVNKEFQMGAKPTTATGNAAAPSTCTARENPAYGRHMQDAEMFTNAAYMALNIWDRFDVFCTLGATSGYLKGNSASFNLVGLFGDNENHATVSDSKLVPNMSLDQSVVELYTDTTFAWSAGARAALWECGCATLGASFQYAQSKPKVEELNVLCNAAEFTINKPKGYVGQEFPLDLKAGTDGVTGTKDASIDYHEWQASLALSYRLNMFTPYIGVKWSRASFDADTIRIAQPKSATTVFDVTTLNPTIAGAGDVKASAEGQLGDTMQIVSLQLNKMKSRKSCGIAVGTTIVDADKYAVTVETRLIDERAAHVNAQFRF
B2: OmpA from Chlamydia trachomatis, untagged, tetracycline/AHT-inducible in HeLa cells (Tet-OmpA HeLa cells) (protein, UniProt P06597 23-394)
chain: LPVGNPAEPSLMIDGILWEGFGGDPCDPCTTWCDAISMRMGYYGDFVFDRVLQTDVNKEFQMGAKPTTATGNAAAPSTCTARENPAYGRHMQDAEMFTNAAYMALNIWDRFDVFCTLGATSGYLKGNSASFNLVGLFGDNENHATVSDSKLVPNMSLDQSVVELYTDTTFAWSAGARAALWECGCATLGASFQYAQSKPKVEELNVLCNAAEFTINKPKGYVGQEFPLDLKAGTDGVTGTKDASIDYHEWQASLALSYRLNMFTPYIGVKWSRASFDADTIRIAQPKSATTVFDVTTLNPTIAGAGDVKASAEGQLGDTMQIVSLQLNKMKSRKSCGIAVGTTIVDADKYAVTVETRLIDERAAHVNAQFRF
B3: OmpA of Chlamydia trachomatis serovar L2, made by the bacteria during infection of HeLa cells (protein, UniProt P06597 23-394)
chain: LPVGNPAEPSLMIDGILWEGFGGDPCDPCTTWCDAISMRMGYYGDFVFDRVLQTDVNKEFQMGAKPTTATGNAAAPSTCTARENPAYGRHMQDAEMFTNAAYMALNIWDRFDVFCTLGATSGYLKGNSASFNLVGLFGDNENHATVSDSKLVPNMSLDQSVVELYTDTTFAWSAGARAALWECGCATLGASFQYAQSKPKVEELNVLCNAAEFTINKPKGYVGQEFPLDLKAGTDGVTGTKDASIDYHEWQASLALSYRLNMFTPYIGVKWSRASFDADTIRIAQPKSATTVFDVTTLNPTIAGAGDVKASAEGQLGDTMQIVSLQLNKMKSRKSCGIAVGTTIVDADKYAVTVETRLIDERAAHVNAQFRF

Experiments:
[1] = biological target: T1, BAK (human (endogenous in HeLa)) (UniProt Q16611); assay: co-IP
T1 sequence: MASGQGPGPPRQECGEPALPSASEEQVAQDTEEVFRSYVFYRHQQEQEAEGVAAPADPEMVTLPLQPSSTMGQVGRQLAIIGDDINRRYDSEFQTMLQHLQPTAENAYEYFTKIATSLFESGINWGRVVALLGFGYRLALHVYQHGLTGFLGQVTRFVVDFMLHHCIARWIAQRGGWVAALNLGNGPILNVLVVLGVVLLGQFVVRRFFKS

[2] = biological target: T1, BAK (human (endogenous in HeLa)); assay: proximity ligation

Binder	binding [1]	binding [2]
B1	binds	
B2		binds
B3	binds	binds
